Reference: PubChem BioAssay AID1259415 (National Center for Advancing Translational Sciences (NCATS), 2018)
Among all 410,000 compounds or so, about 18,000 (4.4%) were called active. Inconclusive results, whose numbers are uncertain, are shown with a selection of clear calls. No stated cut-off is given here; in the data, active means activity change below about -60%; inconclusive means no clear call, values can overlap the other calls; inactive means above about -39%.

assay: qHTS Assay for inhibitors of the human cytomegalovirus (HCMV); conditions: HFF cells, HCMV-luciferase reporter, 72 h; at 57.5 µM; stronger effect = lower value
How it was run: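 Inhibition of viral replication was scored as loss of reporter luminescence in HFFs infected with HCMV-luciferase (MOI 1 PFU/cell) for 72 h; compounds tested at 2 doses, normalized to buffer and Salinomycin controls.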
On the % scale 0 is the no-effect control and ±100 the full control effect.

Question: For `CCOC(=O)C1Cn2c(nc3c(c2=O)C(C)(C)Cc2ccccc2-3)S1` (centres undefined), which activity change, negative = inhibition is on record?
Answer: The activity change, negative = inhibition was inconclusive: -40.9%.

Question: Which activity change, negative = inhibition does the source give for `O=C(COC(=O)C1CC1)Nc1ccccc1Sc1ccccc1` here?
Answer: The activity change, negative = inhibition was inconclusive: -47.9%.

Question: Which activity change, negative = inhibition does the source give for `CC(C)=C1CCC(C)CC1=NNC(N)=S` (centres undefined) here?
Answer: Its activity change, negative = inhibition is inactive: -14.7%.

Question: For `Cc1ccc(NC(=O)Cn2cnc3sc(C(=O)O)c(C)c3c2=O)cc1Cl`, which activity change, negative = inhibition is on record?
Answer: Its activity change, negative = inhibition is inactive: 20.6%.

Question: For `Cc1c(CCNC(=O)c2ccc(Br)o2)sc2nc(-c3ccc(F)cc3)nn12`, which activity change, negative = inhibition is on record?
Answer: The activity change, negative = inhibition was inconclusive: -51.1%.

Question: For `CCOC(=O)C(Sc1nnc(-c2ccncc2)o1)C(C)=O` (centres undefined), which activity change, negative = inhibition is on record?
Answer: The activity change, negative = inhibition was inconclusive: -56.4%.

Question: With `CCN(CC)CCNC(=O)c1ccc(NC(=O)c2cccc(S(=O)(=O)N(C)C3CCCCC3)c2)cc1` as the compound, how does the activity change, negative = inhibition read?
Answer: Its activity change, negative = inhibition is inactive: -7.4%.

Question: Which activity change, negative = inhibition does the source give for `CCCc1ccc(C(O)c2ncc(-c3cccc(C)c3)[nH]2)cc1` (centres undefined) here?
Answer: The activity change, negative = inhibition was inconclusive: -51.4%.

Question: For `OC(c1ccc(CN2CCCCC2)cc1)c1ncc(-c2ccccc2F)[nH]1` (centres undefined), which activity change, negative = inhibition is on record?
Answer: The activity change, negative = inhibition was inactive: 1.68%.

Question: With `Cc1cc(Nc2ccc3c(c2)OCCO3)c2cc(Cl)ccc2n1` as the compound, how does the activity change, negative = inhibition read?
Answer: The activity change, negative = inhibition was active: -93.4%.

Question: Which activity change, negative = inhibition does the source give for `O=C1N=C(N2CCOCC2)CS1` here?
Answer: The activity change, negative = inhibition was inactive: -12.8%.

Question: With `COc1ccc(NC(=O)C2(C)CCCN(C(C)C)C2)cc1F` (centres undefined) as the compound, how does the activity change, negative = inhibition read?
Answer: The activity change, negative = inhibition was inactive: -14.7%.

Question: For `COc1ccc(C(=O)NCC(=O)N2CCN(c3ccc(Cl)cc3)CC2)cc1`, which activity change, negative = inhibition is on record?
Answer: Its activity change, negative = inhibition is inconclusive: -52.9%.

Question: With `COC(=O)N/N=C1/C/C(=N\NC(=O)OC)c2ccccc21` as the compound, how does the activity change, negative = inhibition read?
Answer: Its activity change, negative = inhibition is inconclusive: -40%.

Question: For `O=C(CCS(=O)(=O)c1ccc(Br)cc1)N1CCN(c2ccc(F)cc2)CC1`, which activity change, negative = inhibition is on record?
Answer: Its activity change, negative = inhibition is active: -65%.

Question: For `CCOC(=O)Cc1nc2ccccc2n(CC#N)c1=O`, which activity change, negative = inhibition is on record?
Answer: The activity change, negative = inhibition was inconclusive: -43.3%.

Question: For `O=C(O)CCC(=O)N1CN2CN(C(=O)CCC(=O)O)CC([N+](=O)[O-])(C2)C1`, which activity change, negative = inhibition is on record?
Answer: Its activity change, negative = inhibition is inactive: 1.97%.

Question: For `COc1ccc(NC(=O)c2sccc2C)c([N+](=O)[O-])c1`, which activity change, negative = inhibition is on record?
Answer: Its activity change, negative = inhibition is inconclusive: -52.7%.

Question: Which activity change, negative = inhibition does the source give for `CC(=O)CC[C@@H](C)O[C@@H]1OC(C)[C@H](O)CC1O` (some centres undefined) here?
Answer: Its activity change, negative = inhibition is active: -66.6%.

Question: For `COc1ccc2[nH]c3c(c2c1)CCN1C(=O)C(CC(=O)NC/C=C(\C)CCC=C(C)C)C[C@H](C(=O)N2CCOCC2)[C@@]31CCC1CCCC1` (some centres undefined), which activity change, negative = inhibition is on record?
Answer: The activity change, negative = inhibition was inactive: 7.76%.

Question: With `O=C1NC(=Nc2ccc(Cl)cc2)/C(=C/c2ccco2)S1` as the compound, how does the activity change, negative = inhibition read?
Answer: The activity change, negative = inhibition was active: -80%.

Question: Which activity change, negative = inhibition does the source give for `CN(C)c1ccc(C=C2SC(=S)NC2=O)cc1` here?
Answer: The activity change, negative = inhibition was inactive: 32.6%.

Question: With `Brc1ccccc1OCCNCc1ccccc1` as the compound, how does the activity change, negative = inhibition read?
Answer: Its activity change, negative = inhibition is inconclusive: -42.2%.

Question: With `CCc1nc2ccccc2n1CCCCOc1ccc(C)cc1` as the compound, how does the activity change, negative = inhibition read?
Answer: Its activity change, negative = inhibition is inconclusive: -41%.

Question: With `CCC1CN(C(=O)N2CCC(C(=O)NCCN(CC)CC)CC2)c2cc(C)ccc2O1` (centres undefined) as the compound, how does the activity change, negative = inhibition read?
Answer: The activity change, negative = inhibition was inconclusive: -49.2%.

Question: Which activity change, negative = inhibition does the source give for `CCOC(=O)CNC(=O)c1cc(-c2ccccn2)nc2c(C)c(Cl)ccc12` here?
Answer: Its activity change, negative = inhibition is inconclusive: -42.2%.

Question: Which activity change, negative = inhibition does the source give for `Oc1ccc(NC(=S)Nc2ccccc2)cc1` here?
Answer: Its activity change, negative = inhibition is inconclusive: -47.7%.

Question: For `O=C1N[C@@H](Cc2ccccc2)C(=O)N2[C@H]1C[C@]1([C@]34C[C@H]5C(=O)N[C@@H](Cc6ccccc6)C(=O)N5[C@H]3N(S(=O)(=O)c3ccccc3)c3ccccc34)c3ccccc3N(S(=O)(=O)c3ccccc3)[C@H]21`, which activity change, negative = inhibition is on record?
Answer: The activity change, negative = inhibition was inconclusive: -41.9%.

Question: Which activity change, negative = inhibition does the source give for `Cc1ccc(N2C(=O)CSC23C(=O)N(CC(=O)NCc2ccccc2)c2ccccc23)cc1C` (centres undefined) here?
Answer: Its activity change, negative = inhibition is inactive: -1.93%.

Question: With `O=C(CSc1nc(-c2ccccc2Cl)ns1)Nc1ccc2c(c1)OCO2` as the compound, how does the activity change, negative = inhibition read?
Answer: Its activity change, negative = inhibition is inconclusive: -45.2%.

Question: With `CCc1nc(N)c(C#N)c(-c2cccnc2)c1C` as the compound, how does the activity change, negative = inhibition read?
Answer: Its activity change, negative = inhibition is inactive: -3.97%.

Question: With `Cc1ccc2cc(NC(=O)c3ccc(C(C)(C)C)cc3)ccc2n1` as the compound, how does the activity change, negative = inhibition read?
Answer: Its activity change, negative = inhibition is inconclusive: -51.5%.

Question: Which activity change, negative = inhibition does the source give for `N#Cc1ccc(-c2c(-c3ccccc3)ncc3cc(F)ccc23)cc1` here?
Answer: Its activity change, negative = inhibition is inactive: -6.89%.

Question: With `CCC(=NCCOc1ccc(Cl)cc1)c1c(O)n(C)c(=O)n(C)c1=O` as the compound, how does the activity change, negative = inhibition read?
Answer: Its activity change, negative = inhibition is inconclusive: -58%.

Question: Which activity change, negative = inhibition does the source give for `Cc1ccc2nc(N3CCN(c4cccc(Cl)c4)CC3)c(-n3nc(C)cc3C)nc2c1` here?
Answer: Its activity change, negative = inhibition is inactive: 2.91%.

Question: With `Cc1ccccc1NCC(=O)N=Nc1c(O)[nH]c2ccc([N+](=O)[O-])cc12` as the compound, how does the activity change, negative = inhibition read?
Answer: The activity change, negative = inhibition was active: -83.1%.

Question: For `COc1cc(-c2cc(OC)c3c(C)oc(C)c3c(=O)c2)ccc1OC(=O)c1ccccc1Cl`, which activity change, negative = inhibition is on record?
Answer: The activity change, negative = inhibition was inactive: 362%.

Question: With `Cn1c(=O)[nH]c(=O)c2c1nc(N1CCCCC1)n2C/C=N/Nc1ccc(C(=O)O)cc1` as the compound, how does the activity change, negative = inhibition read?
Answer: Its activity change, negative = inhibition is inconclusive: 0%.

Question: Which activity change, negative = inhibition does the source give for `COc1ccc(NC(=O)c2ccc(CNc3c(NC4CCCCC4)c(=O)c3=O)cc2)c(OC)c1` here?
Answer: The activity change, negative = inhibition was inconclusive: -47%.

Question: With `CCc1ccc(C(=O)c2cn(CC(=O)Nc3ccc4c(c3)OCO4)c3cc(OC)c(OC)cc3c2=O)cc1` as the compound, how does the activity change, negative = inhibition read?
Answer: The activity change, negative = inhibition was inconclusive: -42.4%.

Question: Which activity change, negative = inhibition does the source give for `CCc1ccccc1NC(=O)c1c(NC(=O)c2ccccc2)sc2c1CCCC2` here?
Answer: The activity change, negative = inhibition was inactive: -9.28%.

Question: For `CCn1c(SCC(=O)Nc2ccc(NC(C)=O)cc2)nc2c1c(=O)n(C)c(=O)n2C`, which activity change, negative = inhibition is on record?
Answer: The activity change, negative = inhibition was inactive: 32.4%.

Question: With `O=C(O)c1cc(=S)nc[nH]1` as the compound, how does the activity change, negative = inhibition read?
Answer: Its activity change, negative = inhibition is inactive: 1.4%.

Question: With `O=S(=O)(c1ccc(NC(=S)NCc2ccncc2)cc1)N1CCCCC1` as the compound, how does the activity change, negative = inhibition read?
Answer: Its activity change, negative = inhibition is active: -64.7%.

Question: Which activity change, negative = inhibition does the source give for `COc1ccc2cc(C(=O)NCC3CCCO3)[nH]c2c1` (centres undefined) here?
Answer: The activity change, negative = inhibition was inconclusive: -41.5%.

Question: For `Cc1ccccc1N1CC(c2nc3ccccc3n2CCC2CCCCC2)CC1=O` (centres undefined), which activity change, negative = inhibition is on record?
Answer: Its activity change, negative = inhibition is inconclusive: -43.9%.

Question: Which activity change, negative = inhibition does the source give for `O=C(Nc1cccnc1)c1ccc(-c2cc(Cl)ccc2Cl)o1` here?
Answer: The activity change, negative = inhibition was inactive: 1.39%.

Question: With `Cn1c2c(c(=O)n(C)c1=O)C(NS(=O)(=O)c1ccc(Cl)cc1)(C(F)(F)F)C(=O)N2` (centres undefined) as the compound, how does the activity change, negative = inhibition read?
Answer: The activity change, negative = inhibition was inconclusive: -51.5%.

Question: For `COC(=O)/C=C1\OCc2cc(C)ccc21`, which activity change, negative = inhibition is on record?
Answer: Its activity change, negative = inhibition is inactive: 3.52%.

Question: Which activity change, negative = inhibition does the source give for `CC(C)(CO)NCc1cccc(OCc2ccc(Cl)cc2)c1` here?
Answer: The activity change, negative = inhibition was inconclusive: -58.9%.

Question: For `CC(C)C[C@@H](CN1CCC[C@@H]1CN1C(=S)NC[C@@H]1Cc1ccc(O)cc1)N1C[C@H](Cc2ccc(O)cc2)N(CC2CCCCC2)C1=S`, which activity change, negative = inhibition is on record?
Answer: The activity change, negative = inhibition was active: -100%.

Question: Which activity change, negative = inhibition does the source give for `CC1(C(=O)NCc2ccccc2)CN(S(C)(=O)=O)CC(=O)N1CCCN1CCOCC1` (centres undefined) here?
Answer: Its activity change, negative = inhibition is inactive: 151%.

Question: Which activity change, negative = inhibition does the source give for `CCOc1ccc(CCNC(=O)c2cc3c(-c4ccc(OC)c(OC)c4)nn(C)c3s2)cc1OCC` here?
Answer: Its activity change, negative = inhibition is inconclusive: -52.2%.

Question: For `O=C(O)c1ccc(/C=N/N2CCN(Cc3ccc(Cl)cc3)CC2)cc1`, which activity change, negative = inhibition is on record?
Answer: Its activity change, negative = inhibition is inconclusive: -47%.
